Our source for the cell number change and AC50 values is PubChem BioAssay AID2685 (National Center for Advancing Translational Sciences (NCATS), 2010).

The other results are listed elsewhere or left out. The main result of the screen is listed elsewhere. These columns were measured beside it and carry no call. Most of these compounds were active or inconclusive in the main read-out, so they are no random draw. Words in brackets tell the shape of the fitted curve; partial curves, single points and poor fits give uncertain potencies.

The assay in a line: qHTS Assay for Lipid Storage Modulators in Drosophila S3 Cells.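 As to cell number change: cells counted by Cell Tracker Red CMTPX staining in the red channel.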 To be noted: BODIPY lipid droplet fluorescence, 18-24 h; for cell number change: measured here: cell count max response, cells fed with added oleic acid. In a few lines:
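Drosophila S3 cells loaded with oleic acid (400 uM, as added) and compounds at several concentrations; lipid droplets imaged by 488-nm laser-scanning cytometry, 500–530 nm intensity and object ratio to cell channel. Percent activity normalized to 20 uM Triacsin C.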
Background: qHTS replaces the single test concentration by a dilution series.

Where [1] appears, read: measured here: cell number channel AC50, cells fed with added oleic acid.
[2] abbreviates: measured here: lipid fluorescence (Fed channel) AC50, cells fed with added oleic acid.

A word on the AC50: it is the concentration giving half of the maximal activity seen. Consider `CCCCOc1cccc(-c2nnc(N)s2)c1`, for which the cell number change was determined as 173%. In addition, the concentration at half-maximal activity (AC50) under setting [1] was 0.092 µM [rising, full curve, poor fit].

For the compound `O=C(CSC1=NS(=O)(=O)c2cc(F)ccc2N1)NCc1ccc(F)cc1`, the cell number change is -17.7%. Moreover, the AC50 under setting [2] was 3.26 µM [falling, full curve, poor fit].

For the compound `O=C(CSc1ncnc2sccc12)Nc1ccccc1`, the cell number change was 13.3%. Also, under setting [1], the concentration at half-maximal activity (AC50) was 0.116 µM [rising, full curve, poor fit].

Regarding `Cc1nc(SCC(=O)NC2CCS(=O)(=O)C2)c2c3c(sc2n1)CCCC3` (stereo unspecified), the cell number change was found to be 19.3%. For the same compound, the AC50 under setting [2] was 29.1 µM [rising, single point].

For `Cc1ccn2cc(CCNC(=O)C3CC=CCC3C(=O)O)nc2c1` (stereo unspecified), the cell number change was -7.37%. Further, the AC50 under setting [2] is 0.651 µM [falling, full curve, poor fit].

Regarding `O=C(NC(=S)NC1CCSC1=O)c1cccs1` (stereo unspecified), the cell number change is 33.3%. Further, under setting [1], the concentration at half-maximal activity (AC50) was 6.51 µM [rising, partial curve, poor fit].

Take `CCn1c(SCC(=O)O)nnc1-c1ccccc1`: the cell number change turned out to be 6.86%. Under setting [2], the half-maximal activity concentration (AC50) was 7.31 µM [rising, partial curve, poor fit].

Consider `C/C(=N\Nc1cccc(Cl)c1)c1ccc(-n2ccnc2)cc1`, for which the cell number change was 32%. Besides, the concentration at half-maximal activity (AC50) under setting [1] is 0.58 µM [rising, full curve]. Further, under setting [2], the AC50 is 0.92 µM [rising, full curve].

On to `CCC(C)(c1ccc(C=O)s1)c1ccc(C=O)s1`, for which the cell number change is -2.12%.

For `Cc1cc(=O)c(C(=O)O)cn1Nc1ccc(F)cc1`, the AC50 under setting [2] is 0.0411 µM [falling, full curve, poor fit].

With `CC(C)NC(=O)c1ccc(CN2CCc3ccccc3C2)cc1`, the cell number change was determined as 31.4%. The concentration at half-maximal activity (AC50) under setting [1] is 36.6 µM [rising, single point]. Under setting [2], the AC50 is 13 µM [rising, partial curve, poor fit].

As to `C/C(=N\NC(=O)c1cccc(N/N=C(\C)c2ccncc2)c1)c1ccncc1`, the AC50 under setting [2] is 29.1 µM [falling, single point].

In the case of `COc1cc([C@H]2c3[nH]c4ccccc4c3C[C@H]3C(=O)N4[C@@H](c5cc(OC)c(OC)c(OC)c5)c5[nH]c6ccccc6c5C[C@H]4C(=O)N23)cc(OC)c1OC`, the AC50 by setting is: under setting [1], 0.82 µM [falling, partial curve]; under setting [2], 9.2 µM [falling, partial curve].

In the case of `COCCNCc1ccccc1`, the AC50 under setting [2] is 23.1 µM [falling, partial curve].

As for `CCC1(CC)Cc2ccccc2C(=C(C#N)C#N)N1`, the cell number change worked out at 29.5%. For the same compound, the AC50 under setting [2] was 5.8 µM [rising, partial curve].

Consider `CC1CCN(c2ccccc2NC(=O)c2ccc(C#N)cc2F)CC1`, for which the cell number change was determined as 110%. In addition, the concentration at half-maximal activity (AC50) under setting [1] is 18.4 µM [rising, single point].

Turning to `COc1ccc(CN(Cc2ccc(C(=O)O)cc2)C(=S)Nc2cc(C)cc(C)c2)cc1OC`, the cell number change is -44.2%. The AC50 under setting [1] is 1.64 µM [falling, partial curve, poor fit]. In addition, the half-maximal activity concentration (AC50) under setting [2] is 1.46 µM [falling, partial curve].

As for `O=C(COC(=O)/C=C/c1cccc([N+](=O)[O-])c1)NCc1ccco1`, the cell number change is -40%. For the same compound, under setting [1], the AC50 is 29.1 µM [falling, single point].

For the compound `O=S(=O)(Nc1ccc(Cl)cc1)c1ccc(N2CCOCC2)c(NC(=S)NC2CC2)c1`, the cell number change came out at 22.9%.

Consider `Cc1cc(C)n2nc(C(=O)Nc3c(C)nn(Cc4ccc(F)cc4)c3C)cc2n1`, for which the cell number change was 6.94%. Further, the AC50 under setting [2] was 1.16 µM [rising, single point].

For `CCc1cc(OCCN2C(=O)NC(C)(C)C2=O)ccc1Cl`, the cell number change is -2.86%. The AC50 under setting [1] was 1.46 µM [falling, partial curve]. Further, the half-maximal activity concentration (AC50) under setting [2] is 0.92 µM [falling, full curve].

`CC(NCC(O)c1ccc([N+](=O)[O-])cc1)C12CC3CC(CC(C3)C1)C2` (stereo unspecified): the cell number change stood at 7.36%. The AC50 under setting [2] was 32.6 µM [falling, single point].

With `Cc1c(OC(=O)c2ccc([N+](=O)[O-])cc2)c2c(c[n+]1C)COC(C)(C)OC2`, the concentration at half-maximal activity (AC50) under setting [2] is 4.11 µM [rising, partial curve, poor fit].

On to `CSc1ccc(CCNS(=O)(=O)c2c(C)[nH]c(C)c2C(=O)N2CCCCC2)cc1`, for which the cell number change was -18.8%. In addition, the concentration at half-maximal activity (AC50) under setting [2] was 0.82 µM [falling, single point].

Turning to `Cc1ccsc1C1Nc2ccccc2-c2nc3ccccc3n21` (stereo unspecified), the cell number change is 12.7%. In addition, the AC50 under setting [2] is 29.1 µM [rising, single point].

Take `COc1ccccc1N1CCN(C(=O)CCNS(=O)(=O)c2cc(Br)cnc2N)CC1`: the AC50 under setting [2] was 32.6 µM [falling, single point].

`CC1CCC(NC(=O)Cn2ncc3ccccc32)CC1` (stereo unspecified): the cell number change stood at 13.7%. Besides, the AC50 under setting [2] was 32.6 µM [falling, partial curve, poor fit].

On to `O=C(O)CCS(=O)(=O)c1cccc2cccnc12`, for which the cell number change is -89%. In addition, under setting [1], the half-maximal activity concentration (AC50) is 29.1 µM [falling, single point].

Regarding `COc1ccc(NC(=O)CN2C(=O)NC(C)(c3ccc(C)cc3)C2=O)c([N+](=O)[O-])c1` (stereo unspecified), the cell number change is -4.27%.

Consider `CN(c1ccc(C(=O)O)cc1)S(=O)(=O)c1ccc(Cl)cc1`, for which the cell number change is -18.9%. Moreover, the half-maximal activity concentration (AC50) under setting [1] was 0.13 µM [falling, full curve]. Moreover, the AC50 under setting [2] is 2.06 µM [falling, full curve].

On to `C#Cc1cccc(C(=O)NC2CCCN(C3Cc4ccccc4C3)C2)c1` (stereo unspecified), for which the cell number change is -3.67%. In addition, under setting [2], the concentration at half-maximal activity (AC50) was 6.51 µM [rising, single point].

For the compound `Clc1cccc(Cl)c1COn1nnc2ccccc21`, the cell number change was 124%. Besides, the concentration at half-maximal activity (AC50) under setting [1] is 16.4 µM [rising, partial curve]. For the same compound, under setting [2], the AC50 is 20.6 µM [rising, partial curve].

With `CCN(Cc1ccccc1)C(=O)Cn1c(C(C)O)nc2ccccc21` (stereo unspecified), the cell number change turned out to be 9.91%. Besides, under setting [1], the AC50 was 2.59 µM [rising, partial curve, poor fit]. Besides, the half-maximal activity concentration (AC50) under setting [2] is 6.51 µM [rising, partial curve, poor fit].

For the compound `COc1ccc(NC(=O)CCNC(=O)c2ccco2)c(OC)c1`, the cell number change turned out to be 39.1%.

In the case of `CCCCN1C(=O)C(=O)N(CC(=O)Nc2cc(Cl)ccc2OC)C1=O`, the cell number change is -34.3%. The concentration at half-maximal activity (AC50) under setting [1] is 8.2 µM [falling, partial curve, poor fit]. Also, the AC50 under setting [2] is 8.2 µM [falling, partial curve].

Regarding `CCCC1S/C(=N/N=C/c2ccc(C)cc2)N(Cc2ccc(OC)cc2)C1=O` (stereo unspecified), the AC50 under setting [1] is 3.26 µM [rising, partial curve, poor fit] and the half-maximal activity concentration (AC50) under setting [2] was 4.11 µM [rising, full curve].
